From patent EP3394284B1, “ENZYMATIC METHOD FOR THE EVALUATION OF XYLOSE” (Venter Pharma, S.L, priority 2015, dated 2017)
At least one read-out could not be matched to a standard name with certainty.

Tests used:
[1] = target: T1, XylB-wt2 (Caulobacter vibrioides, UniProt B8H1Z0); assay: Steady-state kinetic assays of purified XylB-wt2 for substrates and cofactor; format: biochemical, C. crescentus NA1000; conditions: recalculated for a hexameric protein with six active sites per enzyme
T1 construct: made in house; host or cells: E. coli BL21(DE3)
T1 sequence (B8H1Z0 1-248): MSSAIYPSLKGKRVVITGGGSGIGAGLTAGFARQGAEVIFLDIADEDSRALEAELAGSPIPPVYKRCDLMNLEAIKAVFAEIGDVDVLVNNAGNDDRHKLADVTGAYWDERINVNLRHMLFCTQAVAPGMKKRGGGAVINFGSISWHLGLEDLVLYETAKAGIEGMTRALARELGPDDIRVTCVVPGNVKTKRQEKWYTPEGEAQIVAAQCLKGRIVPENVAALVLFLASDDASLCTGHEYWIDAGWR

[2] = target: T2, Strep-TEV-XylB (Caulobacter vibrioides, UniProt B8H1Z0); conditions: data taken from Toivari M, 2012a; pH 9.0; cited from earlier work
T2 construct: Strep tag; TEV cleavage site
T2 sequence (B8H1Z0 1-248): T1 sequence (B8H1Z0 1-248)

NC(=O)c1ccc[n+]([C@@H]2O[C@H](COP(=O)([O-])OP(=O)(O)OC[C@H]3O[C@@H](n4cnc5c(N)ncnc54)[C@H](O)[C@@H]3O)[C@@H](O)[C@H]2O)c1 [NAD^+]
kcat/KM [1]: 1038.1 M⁻¹ s⁻¹
kcat/KM [2]: 66670 M⁻¹ s⁻¹
